The results in this text go back to patent US9283279B2, “Targeted polymeric conjugates and uses thereof” (priority 2011, dated 2016).

The subject of series [1] is PC3 human prostate adenocarcinoma cells. The series can be described thus: PC3 cell viability / proliferation assay (MTT). Format: cell-based. The method, then: PC3 cells were plated onto 96 well plate (5×10^3 cells/well) in DMEM supplemented with 5% FBS and incubated for 24 h (37° C.; 5% CO2). […] Following incubation, PC3 cells were counted by MTT.
Series [2] concerns murine 4T1 mammary adenocarcinoma cell line. As to the kind of experiment: 4T1 proliferation assay (MTT). Format: cell-based.
Series [3] has as its system human MDA-MB-231 mammary adenocarcinoma cell line. The series can be described thus: MDA-MB-231 proliferation assay (MTT). Format: cell-based.
Series [4] deals with 4T1-mCherry murine mammary adenocarcinoma in the tibia. The settings on record: female, Balb/c, mouse, in vivo.

For `NCCCC(O)(P(=O)(O)O)P(=O)(O)O` [ALN, (4-amino-1-hydroxybutylidene)bisphosphonic acid], the “toxicity to PC3 cells” value in series [1] was “toxic only at the highest concentration tested of 10 μM”. Also, the “toxicity to 4T1 cells” value in series [2] is “toxic only at the highest concentration tested of 10 μM”. Also, the “toxicity to MDA-MB-231 cells” value in series [3] was “toxic only at the highest concentration tested of 10 μM”. Moreover, the “toxicity: body weight change and mortality” value in series [4] is “very toxic and caused severe body weight loss and mortality within 2 injections”.
